Data as given in ChEMBL document CHEMBL1145968, “3-(alphaR)-alpha-((2S,5R)-4-allyl-2,5-dimethyl-1-piperazinyl)-3-hydroxybenzyl)-N-alkyl-N-arylbenzamides: potent, non-peptidic agonists of both the micro and delta opioid receptors” (J Med Chem, 2003).

Species on record: Mus musculus
Assay: Inhibition of the electrically induced muscle contractions was determined using the mouse vas deferens
Assay type: functional
Outline: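 Vas deferens segments in Krebs buffer, placed between platinum electrodes with isometric force recording at 0.5 g resting tension. Stimulated with 400 ms trains (1 ms pulses, 10 Hz, supramaximal voltage). Cumulative concentrations were each allowed maximal effect before the next.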

`CN1CC[C@]23c4c5ccc(O)c4O[C@H]2[C@@H](O)C=C[C@H]3[C@H]1C5` [MORPHINE] showed an EC50 of 19.7 µM.
